No constants are given. Whether binding was seen depends on the method and setting. Sequences can lack the tags named with a protein.

Sequences of proteins named here, by UniProt entry; tags and fusion partners are left off.
UniProt O61967: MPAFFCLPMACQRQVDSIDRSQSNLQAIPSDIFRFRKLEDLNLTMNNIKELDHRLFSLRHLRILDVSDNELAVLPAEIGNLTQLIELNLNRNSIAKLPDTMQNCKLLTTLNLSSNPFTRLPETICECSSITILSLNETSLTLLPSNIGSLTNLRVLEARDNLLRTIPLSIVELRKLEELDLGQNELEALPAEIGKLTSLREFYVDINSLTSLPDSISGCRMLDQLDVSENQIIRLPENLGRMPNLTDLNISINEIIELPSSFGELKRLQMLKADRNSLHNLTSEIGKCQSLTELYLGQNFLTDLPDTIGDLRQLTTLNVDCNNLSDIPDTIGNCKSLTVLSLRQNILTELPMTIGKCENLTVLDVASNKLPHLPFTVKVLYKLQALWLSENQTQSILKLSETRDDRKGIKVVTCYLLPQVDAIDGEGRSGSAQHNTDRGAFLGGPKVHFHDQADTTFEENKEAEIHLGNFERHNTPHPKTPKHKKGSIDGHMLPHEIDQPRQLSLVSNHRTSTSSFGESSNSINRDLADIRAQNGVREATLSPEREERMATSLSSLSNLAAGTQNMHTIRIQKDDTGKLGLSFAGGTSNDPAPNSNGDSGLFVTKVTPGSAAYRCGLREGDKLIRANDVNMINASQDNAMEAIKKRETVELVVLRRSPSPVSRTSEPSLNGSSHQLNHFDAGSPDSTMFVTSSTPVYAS

For assay [1], the target named is T1, DLG-1 (fluorescently tagged at the endogenous locus, Figure 5A, B, D, E) (C. elegans) (UniProt G5ECY0).
T1 sequence: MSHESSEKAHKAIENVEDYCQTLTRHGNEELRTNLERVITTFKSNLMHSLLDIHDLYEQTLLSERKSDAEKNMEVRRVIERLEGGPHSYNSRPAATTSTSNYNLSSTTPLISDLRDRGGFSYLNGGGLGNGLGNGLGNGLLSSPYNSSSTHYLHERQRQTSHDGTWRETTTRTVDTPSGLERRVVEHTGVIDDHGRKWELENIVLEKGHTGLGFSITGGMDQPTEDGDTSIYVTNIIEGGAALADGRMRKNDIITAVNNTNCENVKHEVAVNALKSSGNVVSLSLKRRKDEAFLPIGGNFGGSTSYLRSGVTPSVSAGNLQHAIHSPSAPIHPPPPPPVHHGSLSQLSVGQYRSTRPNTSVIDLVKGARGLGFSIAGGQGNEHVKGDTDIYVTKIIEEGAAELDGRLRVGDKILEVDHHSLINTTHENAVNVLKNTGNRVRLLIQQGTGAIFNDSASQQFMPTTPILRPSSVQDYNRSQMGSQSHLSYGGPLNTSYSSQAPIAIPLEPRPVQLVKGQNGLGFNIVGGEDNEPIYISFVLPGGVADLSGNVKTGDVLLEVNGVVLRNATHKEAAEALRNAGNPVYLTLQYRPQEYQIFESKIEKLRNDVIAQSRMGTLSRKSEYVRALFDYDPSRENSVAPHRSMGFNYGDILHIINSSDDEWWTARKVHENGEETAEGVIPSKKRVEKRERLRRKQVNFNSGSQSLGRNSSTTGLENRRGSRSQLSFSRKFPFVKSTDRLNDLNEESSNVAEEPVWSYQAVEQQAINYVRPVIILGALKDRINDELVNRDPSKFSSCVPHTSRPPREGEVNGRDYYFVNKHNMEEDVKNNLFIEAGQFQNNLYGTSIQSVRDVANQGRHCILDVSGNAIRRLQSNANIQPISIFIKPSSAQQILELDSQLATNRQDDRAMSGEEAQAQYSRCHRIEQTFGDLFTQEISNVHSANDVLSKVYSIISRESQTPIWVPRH
The assay can be described thus: CeLINC.

For assay [2], the target named is LET-413 (fluorescently tagged at the endogenous locus) (C. elegans) (UniProt O61967). The assay can be described thus: CeLINC.

Turning to “LET-413 (fluorescently tagged at the endogenous locus) (from UniProt O61967 1-699)”, in assay [1], the binding result is recorded as “no binding”.

B1: DLG-1 (fluorescently tagged at the endogenous locus, Figure 5A, B, D, E) (protein, UniProt G5ECY0 1-967)
chain: T1 sequence
As to B1, the binding entry in assay [2] was “no binding”.

The record behind these values is publication doi:10.1101/2021.06.01.446599.
